Binding data for one molecule are collected here from paper doi:10.1101/181503.

This experiment addresses FLAG-ATGL (adipose triglyceride lipase) (not stated (human or mouse cDNA cloned)). In words: affinity purification with mass spectrometry.

No constants are given. Whether binding was seen depends on the method and setting. In cells and extracts the contact can be indirect. These calls come from enrichment with a bait or labelling near it, and not all partners need be listed.

B1: hypoxia-inducible gene 2 (HIG2), endogenous (protein, UniProt Q9Y5L2 1-63)
chain: MKHVLNLYLLGVVLTLLSIFVRVMESLEGLLESPSPGTSWTTRSQLANTEPTKGLPDHPSRSM
Consider B1, for which the binding result is “binds”.
